PubChem BioAssay AID1508597 – Cure First | 2020
This is an unselected part of the about 2,100 reagents, under one of the conditions tested. 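Calls flag viability under 80% in either arm, not effects specific to rucaparib; the reference for percent is not stated.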 Unmarked entries are inactive. Not stated in the record: the 100% reference.

Purpose: 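Genes whose silencing sensitises or protects ovarian cancer cells against rucaparib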 (primary screen)
Cell system: human ovarian carcinoma lines grown from tumours: OCI-P5x (papillary serous) and OCI-C5x (clear cell)
Knock-down reagent: siRNA pool against human genes, 1.25 pmol siRNA per well
Duration: 72 h or 96 h, depending on the cell culture
Conditions: rucaparib 20 µM (about IC30) or vehicle, present until read-out
Rucaparib or vehicle: Vehicle
Cell line: OCI-P5x (serous)
Measured: 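Luminescent ATP-based viability assay read 72 or 96 h after transfection, depending on culture, given as normalised percent viability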
Reading the numbers: viability, normalised: higher = more viable cells remaining
Call rule: 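Active when normalised viability falls below 80 percent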
Calls: active = viability under 80%; inactive = viability 80% or more

With NCOR1, technical replicate 1, what does the deposit list?
viability, normalised (%): 41.4 (active)

With NCOR1, technical replicate 2, what was measured?
viability, normalised (%): 39 (active)

For NCOR1, technical replicate 3, what was measured?
viability, normalised (%): 52.4 (active)

For HGF, technical replicate 1, what was measured?
viability, normalised (%): 71.3 (active)

For HGF, technical replicate 2, what was measured?
viability, normalised (%): 72.5 (active)

Which result is listed for HGF, technical replicate 3?
viability, normalised (%): 81.5

For TSPYL5, technical replicate 1, how do the results read?
viability, normalised (%): 68.8 (active)

With TSPYL5, technical replicate 2, how do the results read?
viability, normalised (%): 90.5

With TSPYL5, technical replicate 3, what was measured?
viability, normalised (%): 98.7

Records listed so far whose gene name begins with N or n:
NCOR1, technical replicate 1: viability, normalised (%) = 41.4 (active)
NCOR1, technical replicate 2: viability, normalised (%) = 39 (active)
NCOR1, technical replicate 3: viability, normalised (%) = 52.4 (active)

More results:
What is on record for NDRG1, technical replicate 1?
viability, normalised (%): 64.7 (active)

With NDRG1, technical replicate 2, what was measured?
viability, normalised (%): 45.3 (active)

What did the screen give for NDRG1, technical replicate 3?
viability, normalised (%): 56.4 (active)

Which result is listed for TESK1, technical replicate 1?
viability, normalised (%): 66.9 (active)

For TESK1, technical replicate 2, what was measured?
viability, normalised (%): 80.1

What is on record for TESK1, technical replicate 3?
viability, normalised (%): 104

Which result is listed for DDX19B, technical replicate 1?
viability, normalised (%): 49.8 (active)

For DDX19B, technical replicate 2, what was measured?
viability, normalised (%): 52.4 (active)

For DDX19B, technical replicate 3, what was measured?
viability, normalised (%): 56.7 (active)

With RAPGEF4, technical replicate 1, how do the results read?
viability, normalised (%): 69.2 (active)

For RAPGEF4, technical replicate 2, how do the results read?
viability, normalised (%): 56.9 (active)

With RAPGEF4, technical replicate 3, what does the deposit list?
viability, normalised (%): 55.7 (active)
